# Measurements as given in publication PMC3140584, “Structure–function relationships of the competence lipoprotein ComL and SSB in meningococcal transformation”.
# Amino acid sequences for entries named in this document (tags omitted). Residues count along the entry.
# UniProt Q70M91, residues 25-354: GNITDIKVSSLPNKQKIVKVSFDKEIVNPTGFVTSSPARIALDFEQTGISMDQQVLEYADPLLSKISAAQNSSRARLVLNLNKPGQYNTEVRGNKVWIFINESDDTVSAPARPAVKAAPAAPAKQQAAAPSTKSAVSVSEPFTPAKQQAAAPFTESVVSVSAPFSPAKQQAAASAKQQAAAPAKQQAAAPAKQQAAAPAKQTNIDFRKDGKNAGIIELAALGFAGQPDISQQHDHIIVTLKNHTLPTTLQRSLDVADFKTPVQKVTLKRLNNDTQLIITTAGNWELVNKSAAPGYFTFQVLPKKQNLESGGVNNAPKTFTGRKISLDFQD
# UniProt Q9K0B1, residues 18-267: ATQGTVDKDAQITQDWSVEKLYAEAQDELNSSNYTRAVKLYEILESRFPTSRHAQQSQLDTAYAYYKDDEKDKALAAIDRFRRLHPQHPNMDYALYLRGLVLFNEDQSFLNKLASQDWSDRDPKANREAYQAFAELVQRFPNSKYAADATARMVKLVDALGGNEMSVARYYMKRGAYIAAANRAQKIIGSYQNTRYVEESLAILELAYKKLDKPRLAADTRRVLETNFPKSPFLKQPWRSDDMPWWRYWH
# Results are given in words; binding and its absence hold for the method and conditions named. Some entries that bind do so weakly or less than the wild type.
# Target: PilQ_(25–354) (Neisseria meningitidis) (UniProt Q70M91)
# Experiment: far-Western, overlay or dot blot; 1 µg PilQ_(25–354) separated by SDS-PAGE, blotted on nitrocellulose, renatured overnight at 4 °C (0.25 % gelatin, 0.5 % BSA, 0.2 % Triton X-100, 10 mM Tris/HCl, 5 mM β-mercaptoethanol, 100 mM NaCl, pH 7.5); overlay for 3 h with 1 µg ComL_(18–267) in 10 ml renaturation buffer; bound ComL detected with rabbit antiserum against ComL; both purified
substance,measurement,value
ComL_(18–267) (from UniProt Q9K0B1 18-267) (domain or fragment),binding,binds
